These are yes or no findings as the source states them, for the method shown. In cells and extracts the contact can be indirect. These calls come from enrichment with a bait or labelling near it, and not all partners need be listed.
Biological target: REG4-Flag (regenerating islet-derived family, member 4, Flag-tagged) (human) (UniProt Q9BYZ8)
Experiment: affinity purification with mass spectrometry; whole cell extracts of SGC-7901/REG4-Flag and SGC-7901/vector-Flag immunoprecipitated with anti-Flag M2 affinity gel; SDS-PAGE, Coomassie blue; differential band analysed by LC-MS

Protein sequences, listed by entry. Tags and fused reporters are not part of them. Residues count along the entry.
UniProt Q9BYZ8, residues 23-158: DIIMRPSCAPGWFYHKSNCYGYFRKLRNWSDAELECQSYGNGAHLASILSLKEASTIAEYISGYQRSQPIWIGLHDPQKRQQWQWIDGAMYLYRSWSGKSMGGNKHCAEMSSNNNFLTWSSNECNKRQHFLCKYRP

B1: prosaposin (protein, UniProt P07602 17-524)
chain: GPVLGLKECTRGSAVWCQNVKTASDCGAVKHCLQTVWNKPTVKSLPCDICKDVVTAAGDMLKDNATEEEILVYLEKTCDWLPKPNMSASCKEIVDSYLPVILDIIKGEMSRPGEVCSALNLCESLQKHLAELNHQKQLESNKIPELDMTEVVAPFMANIPLLLYPQDGPRSKPQPKDNGDVCQDCIQMVTDIQTAVRTNSTFVQALVEHVKEECDRLGPGMADICKNYISQYSEIAIQMMMHMQPKEICALVGFCDEVKEMPMQTLVPAKVASKNVIPALELVEPIKKHEVPAKSDVYCEVCEFLVKEVTKLIDNNKTEKEILDAFDKMCSKLPKSLSEECQEVVDTYGSSILSILLEEVSPELVCSMLHLCSGTRLPALTVHVTQPKDGGFCEVCKKLVGYLDRNLEKNSTKQEILAALEKGCSFLPDPYQKQCDQFVAEYEPVLIEILVEVMDPSFVCLKIGACPSAHKPLLGTEKCIWGPSYWCQNTETAAQCNAVEHCKRHVWN
Question: Which binding does the source give for B1 here?
Answer: Its binding is “binds”.
